The target of the experiment is constitutively active PKCα catalytic domain, HA-tagged (PKCα-CAT-HA) (UniProt P17252). Put plainly: co-IP.

No constants are given. Whether binding was seen depends on the method and setting. In cells and extracts the contact can be indirect. Binding can be weak; no strength is given.

In article doi:10.1101/2025.03.06.641832 (bioRxiv, 2025) one finds binding data, which are given here for one substance.

Regarding “influenza A/H1N1/WSN nucleoprotein, V5-tagged (NP-V5) (from UniProt P15682 8-498)”, the binding result is recorded as “binds”.
